# Measurements: PubChem BioAssay AID2398 (Broad Institute, 2010)
# The list shows a part of the results. Measured potencies and affinities stand elsewhere. Entries without a call are filed as inconclusive in the source.
# Experiment: Confirmatory concentration-response retest of thrombin-receptor-stimulated ATP release inhibitors, platelet-rich plasma, 384-well luminescence (AID 2398)
# Conditions: human platelet-rich plasma, SFLLRN-induced dense granule ATP release; at 50 µM (top of the series)
structure (smiles),measurement,value
CC(=O)Nc1cccc(NC(=O)c2cccc(Cl)c2)c1,"activity change, negative = inhibition",-40.7%
